Data on 4 substances can be found in publication PMC10111864.

Sequences of proteins named here, by UniProt entry; tags and fusion partners are left off. A change or cut given only in a name is not applied to a line headed by its entry.
UniProt P13020: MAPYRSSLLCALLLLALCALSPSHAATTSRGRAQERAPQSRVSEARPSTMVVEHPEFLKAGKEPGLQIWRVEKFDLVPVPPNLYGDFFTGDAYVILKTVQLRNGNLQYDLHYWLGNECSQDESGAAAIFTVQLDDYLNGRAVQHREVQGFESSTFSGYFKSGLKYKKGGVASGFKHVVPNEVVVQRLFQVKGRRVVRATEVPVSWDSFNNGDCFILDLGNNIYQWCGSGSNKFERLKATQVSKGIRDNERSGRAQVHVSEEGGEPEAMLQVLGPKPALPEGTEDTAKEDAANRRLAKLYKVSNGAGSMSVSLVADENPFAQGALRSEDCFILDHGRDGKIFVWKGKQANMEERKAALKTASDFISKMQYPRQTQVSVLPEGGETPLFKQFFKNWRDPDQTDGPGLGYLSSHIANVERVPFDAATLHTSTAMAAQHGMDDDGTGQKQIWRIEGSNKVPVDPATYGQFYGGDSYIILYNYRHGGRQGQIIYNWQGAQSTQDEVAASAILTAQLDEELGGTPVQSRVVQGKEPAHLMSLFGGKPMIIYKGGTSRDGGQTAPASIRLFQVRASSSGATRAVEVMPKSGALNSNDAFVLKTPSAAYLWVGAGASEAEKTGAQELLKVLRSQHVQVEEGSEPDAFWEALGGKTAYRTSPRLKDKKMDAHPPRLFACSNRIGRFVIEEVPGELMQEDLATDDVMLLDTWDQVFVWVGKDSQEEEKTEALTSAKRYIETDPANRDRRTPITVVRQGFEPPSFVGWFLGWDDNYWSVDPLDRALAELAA
UniProt P35279: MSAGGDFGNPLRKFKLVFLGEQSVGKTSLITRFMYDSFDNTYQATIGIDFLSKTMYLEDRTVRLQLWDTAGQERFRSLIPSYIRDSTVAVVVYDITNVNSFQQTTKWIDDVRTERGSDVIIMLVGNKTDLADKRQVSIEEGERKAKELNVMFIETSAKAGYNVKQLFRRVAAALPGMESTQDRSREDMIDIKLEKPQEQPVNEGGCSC
UniProt Q60598: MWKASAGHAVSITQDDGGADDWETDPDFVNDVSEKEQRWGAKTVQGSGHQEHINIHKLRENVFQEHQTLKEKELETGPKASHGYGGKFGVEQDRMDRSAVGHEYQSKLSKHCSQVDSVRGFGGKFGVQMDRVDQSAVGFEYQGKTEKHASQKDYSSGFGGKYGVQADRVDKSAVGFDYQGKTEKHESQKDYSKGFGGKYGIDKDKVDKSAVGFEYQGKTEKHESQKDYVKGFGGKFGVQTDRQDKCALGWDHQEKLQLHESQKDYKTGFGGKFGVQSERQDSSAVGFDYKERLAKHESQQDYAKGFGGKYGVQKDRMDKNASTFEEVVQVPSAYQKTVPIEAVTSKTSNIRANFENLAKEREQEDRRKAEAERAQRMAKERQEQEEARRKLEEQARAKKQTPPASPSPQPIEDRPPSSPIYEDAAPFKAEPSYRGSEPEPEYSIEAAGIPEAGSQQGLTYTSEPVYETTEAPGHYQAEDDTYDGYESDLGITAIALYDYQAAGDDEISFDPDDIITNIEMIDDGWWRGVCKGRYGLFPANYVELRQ

The target of this assay is T1, KIF1C (endogenous, untagged) (mouse (endogenous in YUMM1.7)) (UniProt O35071).
T1 sequence: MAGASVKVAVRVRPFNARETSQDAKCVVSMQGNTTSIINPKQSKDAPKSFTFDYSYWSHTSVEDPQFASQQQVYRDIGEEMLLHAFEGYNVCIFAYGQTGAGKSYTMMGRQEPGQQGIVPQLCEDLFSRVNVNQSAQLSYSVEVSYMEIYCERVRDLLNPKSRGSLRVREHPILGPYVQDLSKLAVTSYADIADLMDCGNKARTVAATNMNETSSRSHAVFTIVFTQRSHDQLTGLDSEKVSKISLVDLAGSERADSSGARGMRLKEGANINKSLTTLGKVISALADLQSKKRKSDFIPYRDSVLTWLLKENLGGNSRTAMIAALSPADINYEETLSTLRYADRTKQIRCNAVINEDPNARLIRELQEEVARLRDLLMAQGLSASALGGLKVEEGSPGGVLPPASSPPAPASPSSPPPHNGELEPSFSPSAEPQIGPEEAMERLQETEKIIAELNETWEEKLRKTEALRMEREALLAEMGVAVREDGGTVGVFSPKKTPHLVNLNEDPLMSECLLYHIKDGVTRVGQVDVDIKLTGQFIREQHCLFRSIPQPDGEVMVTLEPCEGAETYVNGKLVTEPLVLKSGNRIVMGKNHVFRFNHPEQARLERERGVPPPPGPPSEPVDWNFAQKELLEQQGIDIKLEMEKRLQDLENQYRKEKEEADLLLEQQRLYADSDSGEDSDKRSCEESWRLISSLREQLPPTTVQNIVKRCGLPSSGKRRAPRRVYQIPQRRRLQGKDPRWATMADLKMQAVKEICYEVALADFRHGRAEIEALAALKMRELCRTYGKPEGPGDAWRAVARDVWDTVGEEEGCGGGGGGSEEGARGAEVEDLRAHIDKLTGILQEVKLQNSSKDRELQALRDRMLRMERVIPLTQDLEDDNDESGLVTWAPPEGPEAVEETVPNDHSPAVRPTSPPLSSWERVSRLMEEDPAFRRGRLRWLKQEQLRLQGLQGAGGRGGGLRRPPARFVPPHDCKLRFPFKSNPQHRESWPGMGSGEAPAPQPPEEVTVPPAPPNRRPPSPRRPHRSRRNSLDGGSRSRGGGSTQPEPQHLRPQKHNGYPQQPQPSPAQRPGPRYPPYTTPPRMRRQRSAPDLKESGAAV
Kind of assay: affinity purification with mass spectrometry; IP of endogenous KIF1C with α-KIF1C antibody (Bethyl A301-072A) and protein G Dynabeads from lysates of Kif1c+/+ and Kif1c ΔGA1,2 YUMM1.7 cells, Kif1c LOF cells as negative control; 4.5-5 mg total protein; washes 50 mM Tris pH 7.4, 150 mM NaCl, 0.02% NP-40; hits more than threefold enriched over ….

Results are given in words; binding and its absence hold for the method and conditions named. Binding seen in cells or lysates may run through a third protein. Here binding means that the protein was enriched with, or labelled near, the bait; the list need not be complete. Tags and fused reporters may be left off the sequences shown.

For the substance GSN (from UniProt P13020), the binding entry is recorded as “binds”.

For the substance RAB6A (from UniProt P35279 1-208), the binding result is “binds”.

In the case of CTTN (from UniProt Q60598 1-546), the binding entry is “binds”.

As for TPM1 (from UniProt P58771 1-284), the binding entry was “binds”.
